Data from PubChem BioAssay AID256 (DTP/NCI, 2004).
The list is a part of this screen's results and no random one: it gathers some chemical classes. Not every dose and run of a compound is shown. T/C: endpoint of the treated group in % of that of the vehicle group. For survival time, the PubChem record calls one and a half times the control and up active, and a quarter to a half above the control has no call in these data; cut-offs in other NCI protocols can differ. Some entries show no survivor count and are marked so; the dose need not have been tolerated. Schedule codes are those of the source, read here as Q, the interval in days (D) or hours (H), X, the number of doses. Some entries were tested several times; their values stand side by side, smallest first. Some schedules carry Z or #; the key to these is not given.

Test system: CD2F1 mice, L1210 leukemia ip, survival T/C
Experiment: NCI In Vivo Anticancer Drug Screen. Data for tumor model L1210 Leukemia (intraperitoneal) in CD2F1 (CDF1) mice
Conditions: higher T/C = longer survival
Description: The antitumor activity of compounds was measured in mice bearing transplantable tumors. Survival or tumor size were measured and the results are expressed as the measurement made in the treated group (T) divided by the measurement made in the vehicle treated control group (C). The tumor model used in this assay is L1210 Leukemia (intraperitoneal) in CD2F1 (CDF1) mice

[1] = T/C endpoint: mean survival time, dose: 100.0 mg/kg/injection, schedule: Q01DX001 (ip), vehicle: saline with Tween-80
[2] = T/C endpoint: mean survival time, dose: 100.0 mg/kg/injection, schedule: Q04DX002 (ip), vehicle: saline with Tween-80
[3] = T/C endpoint: median survival time, dose: 25.0 mg/kg/injection, schedule: Q04DX003 (ip), vehicle: saline with Tween-80
[4] = T/C endpoint: median survival time, dose: 50.0 mg/kg/injection, schedule: Q04DX003 (ip), vehicle: saline with Tween-80

ClCCNCCCNCCCl
T/C (T/C endpoint: mean survival time, dose: 36.0 mg/kg/injection, schedule: Q01DX Z (ip), vehicle: saline): 147 % of control [survivor count not shown] | T/C (T/C endpoint: mean survival time, dose: 54.0 mg/kg/injection, schedule: Q01DX Z (ip), vehicle: saline): 180 % of control [survivor count not shown] | T/C (T/C endpoint: mean survival time, dose: 81.0 mg/kg/injection, schedule: Q01DX Z (ip), vehicle: saline): 147 % of control [survivor count not shown] | T/C (T/C endpoint: mean survival time, dose: 121.0 mg/kg/injection, schedule: Q01DX Z (ip), vehicle: saline): 115 % of control [survivor count not shown]

ClCCNCCCl.O=C(O)c1cccc2ccccc12
T/C (T/C endpoint: mean survival time, dose: 25.0 mg/kg/injection, schedule: Q01DX009 (ip), vehicle: saline): 94 % of control [survivor count not shown] | T/C (T/C endpoint: mean survival time, dose: 50.0 mg/kg/injection, schedule: Q01DX009 (ip), vehicle: saline): 103 % of control [survivor count not shown] | T/C (T/C endpoint: mean survival time, dose: 88.0 mg/kg/injection, schedule: Q04DX003 (ip), vehicle: saline with Tween-80): 103 % of control [survivor count not shown] | T/C (T/C endpoint: mean survival time, dose: 100.0 mg/kg/injection, schedule: Q01DX009 (ip), vehicle: saline with Tween-80): 125 % of control [survivor count not shown] | T/C (T/C endpoint: mean survival time, dose: 100.0 mg/kg/injection, schedule: Q01DX009 (ip), vehicle: saline): 118 % of control [survivor count not shown] | T/C (T/C endpoint: mean survival time, dose: 132.0 mg/kg/injection, schedule: Q04DX003 (ip), vehicle: saline with Tween-80): 118 % of control [survivor count not shown] | T/C (T/C endpoint: mean survival time, dose: 200.0 mg/kg/injection, schedule: Q01DX009 (ip), vehicle: saline with Tween-80): 119 % of control [survivor count not shown] | T/C (T/C endpoint: mean survival time, dose: 200.0 mg/kg/injection, schedule: Q04DX003 (ip), vehicle: saline with Tween-80): 108 % of control [survivor count not shown] | T/C (T/C endpoint: mean survival time, dose: 300.0 mg/kg/injection, schedule: Q04DX003 (ip), vehicle: saline with Tween-80): 89 % of control [survivor count not shown]

CC(CN1CCCCC1)OC(=O)C(O)(c1ccccc1)c1ccccc1 (stereo not given)
T/C (T/C endpoint: mean survival time, dose: 50.0 mg/kg/injection, schedule: Q04DX002 (ip), vehicle: saline with Tween-80): 90 % of control [survivor count not shown] | T/C [1]: 98 % of control [survivor count not shown] | T/C [2]: 90 % of control [survivor count not shown] | T/C (T/C endpoint: mean survival time, dose: 200.0 mg/kg/injection, schedule: Q01DX001 (ip), vehicle: saline with Tween-80): 107 % of control [survivor count not shown]

COCc1c(CN(CCCl)CCCl)cnc(C)c1O
T/C (T/C endpoint: mean survival time, dose: 4.4 mg/kg/injection, schedule: Q01DX001 (ip), vehicle: saline): 118 % of control [survivor count not shown] | T/C (T/C endpoint: mean survival time, dose: 6.6 mg/kg/injection, schedule: Q01DX001 (ip), vehicle: saline): 121 % of control [survivor count not shown] | T/C (T/C endpoint: mean survival time, dose: 10.0 mg/kg/injection, schedule: Q01DX001 (ip), vehicle: saline): 131 % of control [survivor count not shown] | T/C (T/C endpoint: mean survival time, dose: 15.0 mg/kg/injection, schedule: Q01DX001 (ip), vehicle: saline): 136 % of control [survivor count not shown] | T/C (T/C endpoint: mean survival time, dose: 22.5 mg/kg/injection, schedule: Q01DX001 (ip), vehicle: saline): 162 % of control [survivor count not shown]

CC1CC(C)CN(CCCOC(=O)C(O)(c2ccccc2)c2ccccc2)C1 (stereo not given)
T/C [3]: 100 % of control [survivor count not shown] | T/C [4]: 100 % of control [survivor count not shown]

CN1CCCC(O)C1COC(=O)C(O)(c1ccccc1)c1ccccc1 (stereo not given)
T/C [2]: 93 % of control [survivor count not shown] | T/C (T/C endpoint: mean survival time, dose: 200.0 mg/kg/injection, schedule: Q04DX002 (ip), vehicle: saline with Tween-80): 89 % of control [survivor count not shown]

CN1C(C)(C)CC(OC(=O)C(O)(c2ccccc2)c2ccccc2)CC1(C)C
T/C (T/C endpoint: mean survival time, dose: 8.0 mg/kg/injection, schedule: Q04DX002 (ip), vehicle: saline with Tween-80): 97 % of control [survivor count not shown] | T/C (T/C endpoint: mean survival time, dose: 16.0 mg/kg/injection, schedule: Q04DX002 (ip), vehicle: saline with Tween-80): 94 % of control [survivor count not shown] | T/C (T/C endpoint: mean survival time, dose: 32.0 mg/kg/injection, schedule: Q04DX002 (ip), vehicle: saline with Tween-80): 97 % of control [survivor count not shown] | T/C [2]: 96 % of control [survivor count not shown]

N#CC(C#N)=Cc1ccccc1Cl
T/C (T/C endpoint: mean survival time, dose: 12.5 mg/kg/injection, schedule: Q01DX009 (ip), vehicle: saline with Tween-80): 95 % of control [survivor count not shown] | T/C (T/C endpoint: mean survival time, dose: 25.0 mg/kg/injection, schedule: Q01DX009 (ip), vehicle: saline with Tween-80): 95 % of control [survivor count not shown]

CCCN1CCN(CCOC(=O)C(O)(c2ccccc2)c2ccccc2)CC1C (stereo not given)
T/C (T/C endpoint: mean survival time, dose: 25.0 mg/kg/injection, schedule: Q01DX001 (ip), vehicle: saline with Tween-80): 103 % of control [survivor count not shown] | T/C (T/C endpoint: mean survival time, dose: 50.0 mg/kg/injection, schedule: Q01DX001 (ip), vehicle: saline with Tween-80): 95 % of control [survivor count not shown] | T/C [1]: 97 [survivor count not shown] and 101 % of control [survivor count not shown]

CN1C2CCC(OC(=O)C(O)(c3ccccc3)C3CCCC3)C1CC2 (stereo not given)
T/C (T/C endpoint: mean survival time, dose: 18.7 mg/kg/injection, schedule: Q04DX002 (ip), vehicle: saline with Tween-80): 98 % of control [survivor count not shown] | T/C (T/C endpoint: mean survival time, dose: 37.5 mg/kg/injection, schedule: Q04DX002 (ip), vehicle: saline with Tween-80): 98 % of control [survivor count not shown] | T/C (T/C endpoint: mean survival time, dose: 75.0 mg/kg/injection, schedule: Q04DX002 (ip), vehicle: saline with Tween-80): 103 % of control [survivor count not shown]

O=C(OC1CCN2CCCC1C2)C(O)(c1ccccc1)c1ccccc1 (stereo not given)
T/C [3]: 111 % of control [survivor count not shown] | T/C [4]: 111 % of control [survivor count not shown]
